# Screening data, single-dose tests

Sequences of proteins named here, by UniProt entry; tags and fusion partners are left off. Residues count along the entry.
UniProt P9WPC5, whole entry: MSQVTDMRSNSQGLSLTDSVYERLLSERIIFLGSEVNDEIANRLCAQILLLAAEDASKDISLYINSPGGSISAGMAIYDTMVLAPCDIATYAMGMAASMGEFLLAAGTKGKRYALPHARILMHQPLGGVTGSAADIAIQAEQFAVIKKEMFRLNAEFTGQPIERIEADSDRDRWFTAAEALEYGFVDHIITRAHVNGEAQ
UniProt P9WPC3, whole entry partner: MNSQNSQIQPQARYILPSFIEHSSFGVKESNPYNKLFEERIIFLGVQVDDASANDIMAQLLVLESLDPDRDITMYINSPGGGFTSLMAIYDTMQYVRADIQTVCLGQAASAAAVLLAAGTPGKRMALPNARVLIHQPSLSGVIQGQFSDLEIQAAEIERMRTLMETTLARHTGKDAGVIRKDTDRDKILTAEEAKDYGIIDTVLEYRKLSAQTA
UniProt P9WFT3, whole entry: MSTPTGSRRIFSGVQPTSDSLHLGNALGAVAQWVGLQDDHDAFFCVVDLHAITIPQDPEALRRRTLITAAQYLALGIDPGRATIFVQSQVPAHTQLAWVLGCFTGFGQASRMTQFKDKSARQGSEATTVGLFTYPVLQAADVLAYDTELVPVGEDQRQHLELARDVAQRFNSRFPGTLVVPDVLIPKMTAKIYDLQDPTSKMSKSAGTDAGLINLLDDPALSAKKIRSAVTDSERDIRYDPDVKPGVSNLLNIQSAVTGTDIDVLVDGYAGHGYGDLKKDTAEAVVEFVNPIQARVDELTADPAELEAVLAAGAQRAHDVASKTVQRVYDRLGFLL
UniProt Q8IDJ8, 1-583: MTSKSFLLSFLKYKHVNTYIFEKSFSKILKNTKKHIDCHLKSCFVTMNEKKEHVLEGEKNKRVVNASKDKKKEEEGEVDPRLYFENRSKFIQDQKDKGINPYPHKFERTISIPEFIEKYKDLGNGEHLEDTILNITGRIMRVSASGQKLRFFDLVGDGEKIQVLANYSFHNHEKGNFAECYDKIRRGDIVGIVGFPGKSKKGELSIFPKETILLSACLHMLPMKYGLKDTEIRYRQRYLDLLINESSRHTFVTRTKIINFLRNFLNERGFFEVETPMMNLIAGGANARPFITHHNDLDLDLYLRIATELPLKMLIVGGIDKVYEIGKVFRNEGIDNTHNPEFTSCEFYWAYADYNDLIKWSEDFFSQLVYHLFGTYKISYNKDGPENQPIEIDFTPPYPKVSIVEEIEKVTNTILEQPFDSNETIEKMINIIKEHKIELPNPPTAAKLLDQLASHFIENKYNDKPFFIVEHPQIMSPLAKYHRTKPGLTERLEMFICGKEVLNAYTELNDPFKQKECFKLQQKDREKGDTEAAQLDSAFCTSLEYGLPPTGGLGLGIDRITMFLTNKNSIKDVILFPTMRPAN

From ChEMBL document CHEMBL3988442, “University of Dundee, Small-Polar-MMV Screening Library” (2021).

ClpP1P2: 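Protease assay of ClpP1P2, read by the AMC dye that it sets free. Target: ClpP1P2, Mycobacterium tuberculosis (UniProt P9WPC5 and UniProt P9WPC3). Concentration: 50 µM. Higher reads as stronger inhibition, judged from the few compounds that gave an IC50. Most other retested compounds had strongly negative values. Size under these conditions: about 69,000 compounds, about 10 of them at 50% or above in at least one test.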
MtTrpRS: 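Enzyme assay of tryptophanyl-tRNA synthetase; the read-out is not stated. Target: Tryptophan-tRNA ligase, Mycobacterium tuberculosis (UniProt P9WFT3). Tested at 10 µM. Direction is not recorded; retested compounds ran higher, which suggests that high means inhibition. About 65,000 compounds were tested under these conditions; 0.098% (about 64) showed 50% or more at least once.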
PfKRS1: 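Enzyme assay of the cytosolic lysyl-tRNA synthetase in 384-well plates, read by luminescence. Target: Lysine-tRNA ligase, Plasmodium falciparum 3D7 (UniProt Q8IDJ8). Concentration: 30 µM. Direction is inferred from only a few compounds that gave an IC50; most scored high, so higher reads as stronger inhibition. About 69,000 compounds were tested under these conditions; 0.071% (about 49) showed 50% or more at least once.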

Results are given as percent effect.
The controls that fix the scale are not given in the record; negative values are as filed.
This is an unselected part of the compounds tested.
A dash means the value is not listed here; it may have been measured.

structure | ClpP1P2 | MtTrpRS | PfKRS1
O=C(CSCc1ccncc1)NCC1CCN(C2CC2)C1 (stereo not drawn) | -5.167 | 3.183 | 1.272
CC(=O)c1c(O)n(C)c2ccc(C)cc12 | -1.581 | -2.855 | -3.956
O=C(CN1CCCC(Cn2cncn2)C1)NCCOc1ccccc1 (stereo not drawn) | -6.207 | 0.4223 | -2.046
Cc1ccc2c(c1)c(CNC(C)Cn1ccnc1)nn2C (stereo not drawn) | 4.526 | -2.874 | 7.56
CCc1nccn1-c1cccc(C2CCN(C(=O)COC)CC2)n1 | -4.016 | 3.451 | 0.395
CNC(=O)[C@@]12CCO[C@@H]1CCN(Cc1scnc1C)C2 | -4.958 | -0.7718 | 0.737
O=C(Cc1ccc2c(c1)OCCO2)NC1CC1 | -26.26 | -1.947 | 2.081
COc1ccc(CN(CCC#N)CCN2CCOCC2)cc1OC | -0.8801 | 0.4531 | 1.441
O=C(NCc1cccc(Cl)c1)C1=NOC2(CCNC2)C1 (stereo not drawn) | 4.179 | -0.8718 | 1.761
Cc1ncncc1C(=O)NCCn1nc2ccccn2c1=O | -23.41 | 0.09676 | 0.9221
COCCOc1ccc(NC(=O)C2CC(=O)N(C)C2)cn1 (stereo not drawn) | -10.96 | 0.236 | 4.847
Cc1oncc1C(=O)N1CCC2(CC1)CC(N1CCOCC1)C2 | -6.457 | -5.97 | 8.279
CC(=O)N1C[C@H]2CCCN(c3ncc(C)cn3)[C@H]2C1 | -1.438 | -4.392 | 3.76
c1ccc(-c2cnc3n2CCNC32CCNCC2)cc1 | 12.76 | 3.991 | 1.202
CC(=O)NC1CCN(c2c(C#N)cnc3c(C)cc(F)cc23)CC1 | 3.337 | -4.748 | 4.823
CN1CCOCC12CCN(c1nncs1)CC2 | 4.531 | 1.262 | -2.738
Cc1cc(NC(=O)CN(c2ccccc2)C(C)C)on1 | -0.2117 | 3.205 | 6.284
COCCC(=O)N1CCCC1c1csc(Nc2ccccn2)n1 (stereo not drawn) | 1.705 | - | -1.821
COc1ncccc1CN1CC[C@H]2O[C@@H](c3nnc(C)o3)CC[C@H]21 | 3.12 | 0.5394 | 1.052
CN(C)C(=O)COC1COC2(CCN(CC3CCOCC3)CC2)C1 (stereo not drawn) | -3.954 | - | 0.39
CSCCC(NC(=O)c1ccc2ccccc2n1)C(=O)O (stereo not drawn) | 4.372 | 16.36 | -0.7104
COc1ccc(CN(C)CCS(=O)(=O)c2ccc(Cl)cc2)cc1OC | 0.1169 | 2.279 | 2.807
N#Cc1cc2cc(Cl)cnc2nc1O | -85.56 | -2.43 | 4.405
CC(C)CCNC(=O)c1ccc(Cl)c(NS(C)(=O)=O)c1 | -4.206 | 0.4938 | 2.954
COCCc1noc(Cn2ccc3ccccc3c2=O)n1 | -10.02 | 0.9449 | 4.644
O=C(NCC(=O)N1CCCC(c2ccccc2)CC1)c1ccoc1 (stereo not drawn) | -14.12 | 4.145 | -0.2814
CCc1nnc(CN2CCCCC2Cn2cncn2)o1 (stereo not drawn) | 11.69 | 75.13 | 0.8299
CC(C)OCCNC1(c2ccc(F)cc2)CCOCC1 | 0.2864 | -1.636 | 0.6221
CC(C)CC(=O)N1CCCC1c1cc(CO)[nH]n1 (stereo not drawn) | 3.462 | -10.5 | 0.1707
COCc1cnc2n1CCN(C(=O)c1ccc3ccccc3n1)C2C (stereo not drawn) | -3.638 | -4.497 | 10.67
CC(O)CNc1c(NCc2ccco2)c(=O)c1=O (stereo not drawn) | -9.66 | 2.214 | 1.273
CN(C)CCN(C)c1ccc(-c2nc(COc3ccccc3)no2)cn1 | -10.21 | -6.381 | 2.042
CN1CCN(Cc2cn3c(n2)CN(Cc2cccc(F)c2)CC3)CC1 | -2.15 | - | 1.297
c1ccc(CCN2CCN(c3ccc4nncn4n3)CC2)cc1 | -10.8 | 6.671 | -1.162
CCCSCC(=O)N1CCN(c2ccc(OC)cc2)CC1C (stereo not drawn) | -5.117 | 2.286 | 5.482
CN(Cc1nncn1C)C(=O)c1cc(COc2ccccc2)[nH]n1 | -9.099 | 1.563 | 7.645
CC(SCC(=O)NC(N)=O)c1ccc(Cl)cc1 (stereo not drawn) | 5.599 | -5.374 | 5.413
CS(=O)(=O)c1cccc(C(=O)NCCCN2CCc3ccccc3C2)c1 | -18.7 | 20.32 | -2.502
Cc1cccc2c1nc1n2[C@@H](CNC2CCCCC2)COC1 | 14.45 | 4.173 | 0.7818
O=C(c1ccco1)N(CC(F)(F)F)C1CCOCC1 | -1.171 | -4.974 | -0.3207
O=C(CN1CCc2onc(-c3ccccc3F)c2C1)NC1CC1 | -22.45 | -3.943 | -3.424
O=C(CCc1nccs1)N1CCN(c2cccnn2)CC1 | 9.902 | -1.173 | 7.636
O=C(c1ccccc1Cl)N1CC[C@H](O)[C@@H](N2CCOCC2)CC1 | 6.535 | - | 3.571
COc1cc(CN(C)Cc2cccnc2)c(SC)cc1OC | -0.08964 | 2.414 | 0.5331
O=S(=O)(c1cccs1)N1CCCn2nnc(CN3CCCCC3)c2C1 | -2.71 | -1.784 | 5.316
CCOCCCC(=O)N1CCCC1c1nc(-c2ccccc2F)c[nH]1 (stereo not drawn) | 0.3807 | -2.292 | -0.3622
Cc1cc(C(=O)N2CCN(c3nc4c(F)cccc4s3)CC2)no1 | 10.8 | 0.6958 | 3.142
Cc1nn(C)c2ncc(CNCCc3ccccn3)cc12 | -12.65 | 2.67 | 0.1997
CC(CCS(C)(=O)=O)NC(=O)NCc1ccc2c(c1)CCC2 (stereo not drawn) | 2.381 | -3.091 | 6.107
COc1cc(C(=O)NS(=O)(=O)c2cncc(Br)c2)ccc1C | 6.429 | 7.68 | 3.59
c1cc(CN2CCOCC3(CCNCC3)C2)ccn1 | 9.718 | 0.6823 | 0.9323
c1cncc(OCC2CN(Cc3ccsc3)Cc3nccn3C2)c1 (stereo not drawn) | 3.046 | -3.591 | 5.148
c1cnnc(N2CCCC2CNCc2cscn2)c1 (stereo not drawn) | -22.85 | -6.466 | 4.331
Cc1nnc2n1CCN(C(C(N)=O)c1ccc(F)cc1)C2 (stereo not drawn) | 5.276 | 1.699 | 6.778
CSc1ccc(-c2noc(CN(Cc3ccccc3)C(C)C)n2)cc1 | 3.077 | 0.89 | 2.596
O=C1[C@H]2CCCC[C@H]2C(=O)N1c1cnn(Cc2cccc(F)c2)c1 | -13.18 | 5.448 | 1.833

7 of the entries, repeated:

{"structure": "CSCCC(NC(=O)c1ccc2ccccc2n1)C(=O)O", "stereo": "stereo not drawn", "ClpP1P2": 4.372, "MtTrpRS": 16.36, "PfKRS1": -0.7104}
{"structure": "c1cncc(OCC2CN(Cc3ccsc3)Cc3nccn3C2)c1", "stereo": "stereo not drawn", "ClpP1P2": 3.046, "MtTrpRS": -3.591, "PfKRS1": 5.148}
{"structure": "c1ccc(CCN2CCN(c3ccc4nncn4n3)CC2)cc1", "ClpP1P2": -10.8, "MtTrpRS": 6.671, "PfKRS1": -1.162}
{"structure": "COc1ccc(CN(C)CCS(=O)(=O)c2ccc(Cl)cc2)cc1OC", "ClpP1P2": 0.1169, "MtTrpRS": 2.279, "PfKRS1": 2.807}
{"structure": "N#Cc1cc2cc(Cl)cnc2nc1O", "ClpP1P2": -85.56, "MtTrpRS": -2.43, "PfKRS1": 4.405}
{"structure": "O=C(c1ccccc1Cl)N1CC[C@H](O)[C@@H](N2CCOCC2)CC1", "ClpP1P2": 6.535, "PfKRS1": 3.571}
{"structure": "Cc1oncc1C(=O)N1CCC2(CC1)CC(N1CCOCC1)C2", "ClpP1P2": -6.457, "MtTrpRS": -5.97, "PfKRS1": 8.279}